In PubChem BioAssay AID588343 (Broad Institute, 2011):
The campaign covered roughly 1,200 compounds. About 650 (54%) were called active. Another 5% or so got no clear call; they are omitted.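 The calls were made as follows: active = signal-lowering curve whose fitted half-maximal concentration is at or below ten times the top valid dose tested; inconclusive = flat curve with 30 to 70% inhibition, or poor fit; inactive = signal increase, flat within 30%, or potency beyond limit.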 The set was probably picked from earlier hits. This is a selection; strong and weak results do not stand in their true shares. Measured potencies and affinities stand elsewhere.

assay: EBV LMP1 TES2 canonical NF-kB signalling blockers – cell-based, HEK293, luciferase, cherry-pick, dose response (AID 588343); settings: HEK293 LMP1 TES2 NF-kB luciferase reporter, 16 h; at 35 µM (top of the series);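 also: 0% = median of neutral control wells and -100% = MG132 positive control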

Row | SMILES | activity change, negative = inhibition
1 | O=c1cccc2n1CC1CC2CN(Cc2c(F)cccc2Cl)C1 (configuration not stated) | inactive: 8.9%
2 | Cc1nc2ccccc2n1C1CCN(Cc2nnnn2CCc2ccccc2)CC1 | inactive: -14.6%
3 | C#C[C@]1(O)CC[C@H]2[C@@H]3CCC4=CC(=O)CC[C@]4(C)[C@H]3CC[C@@]21C | inactive: 21%
4 | CC(=O)N(C)C1=Nc2ccc(Cl)cc2C(c2ccccc2)=[N+]([O-])C1 | inactive: -13.9%
5 | CCN1C[C@]2(COC)CC[C@H](OC)[C@@]34C1[C@]1(OCO[C@@]15C[C@H](OC)[C@H]1C[C@@H]3[C@@H]5[C@H]1OC)[C@@H](O)[C@H]24 | inactive: -0.915%
6 | O=C(N/N=C/C1C(=O)NC(=S)N(c2ccccc2)C1=O)c1cc(Br)c(O)c(Br)c1 (configuration not stated) | inactive: -11.4%
7 | COc1ccc(CCNCc2cccn2C)cc1 | inactive: 5.47%
8 | COc1ccc(OC)c([C@@H](O)[C@H](C)NC(C)(C)C)c1 | inactive: -4.69%
9 | O=C(N/N=C/c1c(O)n(C2CCCCC2)c(=S)[nH]c1=O)c1ccccc1O | inactive: -3.31%
10 | COC(=O)C1=C(c2ccc(F)cc2OCc2ccccc2)C[C@@H]2CC[C@H]1N2C(=O)NC(C)C | inactive: -9.45%
11 | C[N+]1(C)[C@@H]2CC[C@H]1CC(OC(=O)C(CO)c1ccccc1)C2 (some centres not stated) | inactive: 1.26%
12 | CCN(CC)CCCN=Cc1c(O)n(Cc2ccc(F)cc2)c(=O)[nH]c1=O | inactive: -8.31%
13 | O=C(O)CCCOc1ccc(Cl)cc1Cl | inactive: -4.85%
14 | CC1(C(=O)O)CC12c1ccccc1-c1ccccc12 (configuration not stated) | inactive: -11.7%
15 | C[C@@H]1CN(C2CCC(C#N)(c3ccc(F)cc3)CC2)CC[C@]1(C(=O)O)c1ccccc1 (some centres not stated) | inactive: 14.2%
16 | CN1[C@@H]2CC[C@H]1CC(OC(=O)C1C=Nc3ccccc31)C2 (some centres not stated) | inactive: 36.6%
17 | Fc1ccc(C(OCCN2CCCC2)c2ccc(F)cc2)cc1 | inactive: 17.2%
18 | CCN1C[C@]2(C)CC[C@H](O)[C@]34C1[C@H](C[C@H]23)[C@@]1(O)C[C@H](OC)[C@H]2C[C@@H]4[C@@H]1C2O (some centres not stated) | inactive: -5.52%
19 | COC(=O)C1C2CC[C@@H](CC1OC(=O)c1ccccc1)N2 (some centres not stated) | inactive: 1.78%
20 | O=[N+]([O-])c1ccc(CN2CC=C(c3ccccc3)CC2)cc1 | inactive: 30.1%
21 | COC(=O)C1=C(c2ccc3ccccc3c2)C[C@@H]2CC[C@H]1N2C(=O)N1CCC(O)CC1 | inactive: -5.03%
22 | COc1c2c(cc3c1OCO3)CCN(C)C2 | inactive: 8.11%

5 entries from above, arranged by molar mass, rising:
Row | SMILES | activity change, negative = inhibition
13 | O=C(O)CCCOc1ccc(Cl)cc1Cl | inactive: -4.85%
14 | CC1(C(=O)O)CC12c1ccccc1-c1ccccc12 (configuration not stated) | inactive: -11.7%
20 | O=[N+]([O-])c1ccc(CN2CC=C(c3ccccc3)CC2)cc1 | inactive: 30.1%
12 | CCN(CC)CCCN=Cc1c(O)n(Cc2ccc(F)cc2)c(=O)[nH]c1=O | inactive: -8.31%
2 | Cc1nc2ccccc2n1C1CCN(Cc2nnnn2CCc2ccccc2)CC1 | inactive: -14.6%
